Experiment [1] has as its target T1, Ysc84 SH3 domain, Gal4 binding domain (bait) fusion (S. cerevisiae) (UniProt P32793).
T1 sequence: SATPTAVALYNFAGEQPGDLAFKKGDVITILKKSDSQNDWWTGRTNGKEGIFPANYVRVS
The experiment in a line: two-hybrid; yeast two-hybrid; Las17 polyproline region on the activation plasmid, SH3 domains on the Gal4 binding domain (bait) plasmid.

Sequences of proteins named here, by UniProt entry; tags and fusion partners are left off. Residues count along the entry.
UniProt P39743, residues 421-482: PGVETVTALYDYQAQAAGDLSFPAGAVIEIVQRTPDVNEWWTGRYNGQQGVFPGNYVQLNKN

The target in experiment [2] is Rvs167 SH3 domain, Gal4 binding domain (bait) fusion (S. cerevisiae) (UniProt P39743). The experiment is described as above.

This is an account of results in article PMC4552428.

These are yes or no findings as the source states them, for the method shown. Some entries that bind do so weakly or less than the wild type. For some of these results: Tags and fused reporters may be left off the sequences shown.

Consider “Las17 polyproline region (residues 292–536) P388A, two-hybrid activation-domain fusion (from UniProt Q12446 292-536) (domain or fragment)”, for which the binding entry in experiment [1] and in experiment [2] was “binds” throughout.

Take “Las17 polyproline region (residues 292–536), two-hybrid activation-domain fusion (from UniProt Q12446 292-536) (domain or fragment)”: the binding entry in experiment [1] and in experiment [2] was “binds” in each case.
